Laboratory results taken from the supplement of paper PMC8256030.
Where “and” joins values, the source holds several entries; their conditions need not be identical. Equal values may be shown once. Where a name gives a salt, the structure may show the parent alone. The list shows a part of the results. Repeats in this data set agree poorly, so a single value says little.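 HEK293T cells were given each compound shortly before transfection with a reporter in which red mCherry is followed by the SARS-CoV-2 frameshift element and then GFP in the −1 frame, so GFP appears only after frameshifting.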

test system: SARS-CoV-2 -1 PRF reporter mCherry-FSE-GFP(-1); assay: mCherry (red) intensity as percent of control; higher = higher upstream reporter expression; conditions: 10 µM; 24 h; HEK293T

Row | SMILES | mCherry
1 | CCOC(=O)c1cnc2c(cnn2CC)c1NN=C(C)C [etazolate] | 88.6%
2 | CO[C@H]1C[C@@H]2CC[C@@H](C)[C@@](O)(O2)C(=O)C(=O)N2CCCC[C@H]2C(=O)O[C@H]([C@H](C)C[C@@H]2CC[C@@H](OC(=O)C(C)(CO)CO)[C@H](OC)C2)CC(=O)[C@H](C)/C=C(\C)[C@@H](O)[C@@H](OC)C(=O)[C@H](C)C[C@H](C)/C=C/C=C/C=C/1C [Temsirolimus] | 86.4%
3 | CC(C)(C)CC(C)(C)c1ccc(O)c(Cc2ccc(Cl)cc2Cl)c1 [clofoctol] | 98.3%
4 | COc1ccc2[nH]cc(CCNC(C)=O)c2c1 [Melatonin] | 69%
5 | CN(CCOc1ccc(CC2SC(=O)NC2=O)cc1)c1ccccn1 (stereo not drawn) [Rosiglitazone maleate] | 89.1%
6 | CS(=O)(=O)Nc1ccc([N+](=O)[O-])cc1Oc1ccccc1 [nimesulide] | 103% and 87.4%
7 | Cc1[nH]c(=O)c(C#N)cc1-c1ccc2nccn2c1 [olprinone] | 102%
8 | OCCN1CCN(CCCN2c3ccccc3Sc3ccc(Cl)cc32)CC1 [perphenazine] | 136%

Retrieved one by one from above (two):
Row | SMILES | mCherry
4 | COc1ccc2[nH]cc(CCNC(C)=O)c2c1 [Melatonin] | 69%
6 | CS(=O)(=O)Nc1ccc([N+](=O)[O-])cc1Oc1ccccc1 [nimesulide] | 103% and 87.4%
